According to the supplement of paper PMC6411743:
± gives the standard deviation of the averaged measurements. The list shows a part of the results.

Sequences of proteins named here, by UniProt entry; tags and fusion partners are left off. A change or cut given only in a name is not applied to a line headed by its entry.
UniProt H0UI80: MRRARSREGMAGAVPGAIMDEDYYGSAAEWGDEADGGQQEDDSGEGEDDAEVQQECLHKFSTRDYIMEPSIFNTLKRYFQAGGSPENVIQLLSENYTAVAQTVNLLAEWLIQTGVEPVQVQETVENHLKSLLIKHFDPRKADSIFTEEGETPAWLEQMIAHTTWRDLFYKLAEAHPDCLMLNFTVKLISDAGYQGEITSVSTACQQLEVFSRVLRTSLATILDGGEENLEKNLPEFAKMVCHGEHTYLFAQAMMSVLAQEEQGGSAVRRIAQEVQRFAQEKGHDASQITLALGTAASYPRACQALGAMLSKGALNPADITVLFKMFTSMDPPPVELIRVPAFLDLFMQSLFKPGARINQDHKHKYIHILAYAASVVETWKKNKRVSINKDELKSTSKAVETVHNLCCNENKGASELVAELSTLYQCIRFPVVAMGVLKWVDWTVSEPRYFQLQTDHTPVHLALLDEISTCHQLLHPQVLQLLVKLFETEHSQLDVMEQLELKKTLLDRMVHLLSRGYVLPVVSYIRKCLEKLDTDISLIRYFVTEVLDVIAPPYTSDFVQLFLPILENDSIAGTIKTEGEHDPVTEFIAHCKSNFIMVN
UniProt Q8IXH7, whole entry, looked up: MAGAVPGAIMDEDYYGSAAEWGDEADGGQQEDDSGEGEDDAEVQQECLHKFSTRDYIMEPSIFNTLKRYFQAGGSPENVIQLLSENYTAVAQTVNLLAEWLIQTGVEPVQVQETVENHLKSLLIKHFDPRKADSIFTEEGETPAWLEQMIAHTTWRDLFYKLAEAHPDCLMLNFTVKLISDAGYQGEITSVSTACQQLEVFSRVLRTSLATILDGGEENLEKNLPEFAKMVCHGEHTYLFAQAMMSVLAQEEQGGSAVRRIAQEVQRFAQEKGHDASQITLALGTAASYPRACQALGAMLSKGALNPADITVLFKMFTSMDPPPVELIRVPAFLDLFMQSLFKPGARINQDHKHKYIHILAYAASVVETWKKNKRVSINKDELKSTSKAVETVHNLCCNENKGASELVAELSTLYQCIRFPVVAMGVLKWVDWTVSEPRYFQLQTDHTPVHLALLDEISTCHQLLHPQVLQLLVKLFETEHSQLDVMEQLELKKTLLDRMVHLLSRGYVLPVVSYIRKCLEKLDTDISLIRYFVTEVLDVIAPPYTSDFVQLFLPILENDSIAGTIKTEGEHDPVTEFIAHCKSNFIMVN
UniProt Q8IWX8: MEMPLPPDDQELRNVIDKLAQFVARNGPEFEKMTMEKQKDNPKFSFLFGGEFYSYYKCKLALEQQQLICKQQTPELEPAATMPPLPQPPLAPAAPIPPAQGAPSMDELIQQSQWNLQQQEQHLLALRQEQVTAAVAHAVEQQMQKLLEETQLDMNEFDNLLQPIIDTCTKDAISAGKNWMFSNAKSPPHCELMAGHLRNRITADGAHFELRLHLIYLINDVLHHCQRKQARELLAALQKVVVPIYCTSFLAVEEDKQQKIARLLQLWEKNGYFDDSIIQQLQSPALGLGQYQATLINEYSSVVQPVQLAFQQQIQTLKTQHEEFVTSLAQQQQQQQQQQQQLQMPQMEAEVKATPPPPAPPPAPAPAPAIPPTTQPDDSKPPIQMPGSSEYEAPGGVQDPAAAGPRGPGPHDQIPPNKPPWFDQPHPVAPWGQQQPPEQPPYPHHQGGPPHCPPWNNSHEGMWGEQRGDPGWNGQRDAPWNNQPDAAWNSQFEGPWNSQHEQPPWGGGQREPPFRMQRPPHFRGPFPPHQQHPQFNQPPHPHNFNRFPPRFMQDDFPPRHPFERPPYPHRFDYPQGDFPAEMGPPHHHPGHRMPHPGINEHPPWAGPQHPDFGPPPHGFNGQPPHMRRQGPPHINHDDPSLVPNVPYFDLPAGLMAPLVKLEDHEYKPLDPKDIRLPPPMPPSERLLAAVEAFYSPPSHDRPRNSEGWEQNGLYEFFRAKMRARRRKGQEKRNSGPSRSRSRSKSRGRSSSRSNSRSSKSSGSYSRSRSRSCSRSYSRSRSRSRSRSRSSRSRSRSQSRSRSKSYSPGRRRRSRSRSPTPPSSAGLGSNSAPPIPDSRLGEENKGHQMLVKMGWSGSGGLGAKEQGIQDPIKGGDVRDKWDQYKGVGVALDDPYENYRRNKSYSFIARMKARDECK
UniProt P11940, whole entry: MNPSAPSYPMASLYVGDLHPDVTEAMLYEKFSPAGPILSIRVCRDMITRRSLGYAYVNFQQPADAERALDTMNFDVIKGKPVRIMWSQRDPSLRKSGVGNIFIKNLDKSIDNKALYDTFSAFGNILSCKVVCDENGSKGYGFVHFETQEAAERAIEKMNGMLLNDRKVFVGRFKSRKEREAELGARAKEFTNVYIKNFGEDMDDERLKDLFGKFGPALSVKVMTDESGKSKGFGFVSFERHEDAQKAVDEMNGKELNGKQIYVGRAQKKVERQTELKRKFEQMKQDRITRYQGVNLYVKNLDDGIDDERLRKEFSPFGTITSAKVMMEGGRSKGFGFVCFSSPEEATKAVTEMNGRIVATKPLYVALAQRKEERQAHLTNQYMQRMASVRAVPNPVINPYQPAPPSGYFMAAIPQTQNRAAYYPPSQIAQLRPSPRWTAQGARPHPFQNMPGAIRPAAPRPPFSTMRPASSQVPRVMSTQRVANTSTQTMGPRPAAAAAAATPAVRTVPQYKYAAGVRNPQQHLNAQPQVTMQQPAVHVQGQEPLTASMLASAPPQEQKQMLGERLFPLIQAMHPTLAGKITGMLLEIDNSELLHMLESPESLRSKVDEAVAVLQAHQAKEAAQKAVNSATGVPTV
UniProt Q6P4E1: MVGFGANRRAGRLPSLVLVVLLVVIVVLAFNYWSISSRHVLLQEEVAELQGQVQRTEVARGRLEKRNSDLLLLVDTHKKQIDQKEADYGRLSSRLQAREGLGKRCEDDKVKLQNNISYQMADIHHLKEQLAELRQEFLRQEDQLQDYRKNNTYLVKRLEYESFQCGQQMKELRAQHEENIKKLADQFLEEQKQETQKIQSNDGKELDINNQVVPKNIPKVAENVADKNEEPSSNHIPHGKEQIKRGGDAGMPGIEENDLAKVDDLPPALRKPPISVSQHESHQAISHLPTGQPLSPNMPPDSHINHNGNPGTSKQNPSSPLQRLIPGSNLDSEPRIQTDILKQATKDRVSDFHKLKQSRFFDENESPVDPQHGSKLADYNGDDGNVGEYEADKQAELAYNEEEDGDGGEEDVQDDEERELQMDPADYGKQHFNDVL

Compound: Nc1nc2c(ncn2[C@@H]2O[C@H](COP(=O)(O)OP(=O)(O)OP(=O)(O)O)[C@@H](O)[C@H]2O)c(=O)[nH]1 [guanosine triphosphate]
Experiment: NP40-soluble protein abundance relative to vehicle (solubility fold change) (ratio); higher = more soluble protein in presence of GTP
Description: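 Solubility proteome profiling in Jurkat crude lysate. Lysate was treated with Mg-GTP (0.1-10 mM) for 10 min at room temperature and 3 min at 37 °C, then solubilised with 0.8% NP40 and benzonase, followed by ultracentrifugation. Proteins were quantified by TMT10 LC-MS/MS; the value is the NP40-soluble abundance relative to the NP40-processed vehicle, from 3 independent experiments.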

Target | NP40-soluble protein abundance (concentration: 0.1mM) | NP40-soluble protein abundance (concentration: 0.5mM) | NP40-soluble protein abundance (concentration: 1mM) | NP40-soluble protein abundance (concentration: 2mM) | NP40-soluble protein abundance (concentration: 4mM) | NP40-soluble protein abundance (concentration: 6mM) | NP40-soluble protein abundance (concentration: 8mM) | NP40-soluble protein abundance (concentration: 10mM)
H0UI80 and related entries (UniProt X6RLT1+Q8IXH7+H0UI80) | 1.01 ± 0.017 | 0.973 ± 0.038 | 0.965 ± 0.024 | 0.968 ± 0.012 | 0.981 ± 0.011 | 0.978 ± 0.01 | 0.97 ± 0.039 | 0.95 ± 0.0096
J3QK89 and related entries (UniProt Q8IWX8) | 1 ± 0.052 | 1.05 ± 0.023 | 1.14 ± 0.043 | 1.17 ± 0.095 | 1.26 ± 0.12 | 1.26 ± 0.12 | 1.34 ± 0.19 | 1.38 ± 0.21
H0YAR2 and related entries (UniProt P11940) | 0.985 ± 0.065 | 0.993 ± 0.061 | 1.01 ± 0.071 | 0.967 ± 0.07 | 1.02 ± 0.058 | 1.03 ± 0.066 | 1.07 ± 0.036 | 1.03 ± 0.039
K7ELC7 and related entries (UniProt P61353) | 1 ± 0.026 | 1 ± 0.03 | 1.01 ± 0.073 | 0.959 ± 0.089 | 0.864 ± 0.074 | 0.843 ± 0.11 | 0.795 ± 0.06 | 0.841 ± 0.082
H0YM51 and related entries (UniProt Q6P4E1) | 0.958 ± 0.2 | 0.898 ± 0.14 | 1.08 ± 0.21 | 1.01 ± 0.16 | 0.994 ± 0.2 | 0.955 ± 0.17 | 0.991 ± 0.24 | 1.16 ± 0.22
